This continues a long series; more values of the same kind are listed elsewhere.
Tested on: HEK293T nuclear lysates
Assay: SILAC‐based pull‐down proteomics H4K5acK8ac/H4K5 (probes 8/5)
Type: binding, human

probe 8: H4K5acK8ac peptide probe with photo‐arginine R(dz) and K(biotin) (SGRGKGGKGLGKGGK; photo-arginine R(dz) at 3; acetyl-lysine at 5; acetyl-lysine at 8; K(biotin) at 15)
B6 log2 (H4K5ac8ac/H4K5) (protein SMCHD1 (A6NHR9), replicate B6): 0.1692
A6 log2 (H4K5ac8ac/H4K5) (protein SMU1 (Q2TAY7), replicate A6): 1.408
B6 log2 (H4K5ac8ac/H4K5) (protein SMU1 (Q2TAY7), replicate B6): 0.1323
A6 log2 (H4K5ac8ac/H4K5) (protein SND1 (Q7KZF4), replicate A6): 0.02377
B6 log2 (H4K5ac8ac/H4K5) (protein SND1 (Q7KZF4), replicate B6): 0.2076
A6 log2 (H4K5ac8ac/H4K5) (protein SUPT20H (B4E2D5), replicate A6): -0.008701
B6 log2 (H4K5ac8ac/H4K5) (protein SUPT20H (B4E2D5), replicate B6): 0.09447
A6 log2 (H4K5ac8ac/H4K5) (protein TARS (P26639), replicate A6): 0.2216
B6 log2 (H4K5ac8ac/H4K5) (protein TARS (P26639), replicate B6): 0.1022
A6 log2 (H4K5ac8ac/H4K5) (protein TBCC (Q15814), replicate A6): 0.6727
B6 log2 (H4K5ac8ac/H4K5) (protein TBCC (Q15814), replicate B6): 0.2088
A6 log2 (H4K5ac8ac/H4K5) (protein THOC3 (Q96J01), replicate A6): 0.1071
B6 log2 (H4K5ac8ac/H4K5) (protein THOC3 (Q96J01), replicate B6): 0.1618
A6 log2 (H4K5ac8ac/H4K5) (protein TPI1 (P60174), replicate A6): 0.03474
B6 log2 (H4K5ac8ac/H4K5) (protein TPI1 (P60174), replicate B6): 0.1724
A6 log2 (H4K5ac8ac/H4K5) (protein TPX2 (Q9ULW0), replicate A6): 0.3363
B6 log2 (H4K5ac8ac/H4K5) (protein TPX2 (Q9ULW0), replicate B6): 0.08976
A6 log2 (H4K5ac8ac/H4K5) (protein TUBB6 (Q9BUF5), replicate A6): 0.1994
B6 log2 (H4K5ac8ac/H4K5) (protein TUBB6 (Q9BUF5), replicate B6): 0.1733
A6 log2 (H4K5ac8ac/H4K5) (protein USP48 (Q86UV5), replicate A6): 0.0658
B6 log2 (H4K5ac8ac/H4K5) (protein USP48 (Q86UV5), replicate B6): 0.1885
A6 log2 (H4K5ac8ac/H4K5) (protein VDAC2 (A0A0A0MR02), replicate A6): 0.4577
B6 log2 (H4K5ac8ac/H4K5) (protein VDAC2 (A0A0A0MR02), replicate B6): 0.1677
A6 log2 (H4K5ac8ac/H4K5) (protein VRK1 (Q99986), replicate A6): 0.04481
B6 log2 (H4K5ac8ac/H4K5) (protein VRK1 (Q99986), replicate B6): 0.1662
A6 log2 (H4K5ac8ac/H4K5) (protein WDHD1 (O75717), replicate A6): -0.09064
B6 log2 (H4K5ac8ac/H4K5) (protein WDHD1 (O75717), replicate B6): 0.1039
A6 log2 (H4K5ac8ac/H4K5) (protein WDR82 (Q6UXN9), replicate A6): 0.134
B6 log2 (H4K5ac8ac/H4K5) (protein WDR82 (Q6UXN9), replicate B6): 0.109
A6 log2 (H4K5ac8ac/H4K5) (protein YWHAE (P62258), replicate A6): 0.3463
B6 log2 (H4K5ac8ac/H4K5) (protein YWHAE (P62258), replicate B6): 0.1476
A6 log2 (H4K5ac8ac/H4K5) (protein YY1 (H0YJU4), replicate A6): 0.1095
B6 log2 (H4K5ac8ac/H4K5) (protein YY1 (H0YJU4), replicate B6): 0.1453
A6 log2 (H4K5ac8ac/H4K5) (protein ZC3HC1 (C9J0I9), replicate A6): 0.06542
B6 log2 (H4K5ac8ac/H4K5) (protein ZC3HC1 (C9J0I9), replicate B6): 0.1123
A6 log2 (H4K5ac8ac/H4K5) (protein ZFP64 (Q9NTW7), replicate A6): 0.1142
B6 log2 (H4K5ac8ac/H4K5) (protein ZFP64 (Q9NTW7), replicate B6): 0.1892
A6 log2 (H4K5ac8ac/H4K5) (protein ZFR (Q96KR1), replicate A6): 0.2728
B6 log2 (H4K5ac8ac/H4K5) (protein ZFR (Q96KR1), replicate B6): 0.106
A6 log2 (H4K5ac8ac/H4K5) (protein ZMYM2 (Q9UBW7), replicate A6): 0.1483
B6 log2 (H4K5ac8ac/H4K5) (protein ZMYM2 (Q9UBW7), replicate B6): 0.09036
A6 log2 (H4K5ac8ac/H4K5) (protein ZNF24 (P17028), replicate A6): 0.7178
B6 log2 (H4K5ac8ac/H4K5) (protein ZNF24 (P17028), replicate B6): 0.2116
A6 log2 (H4K5ac8ac/H4K5) (protein ZNF207 (O43670), replicate A6): 0.4331
B6 log2 (H4K5ac8ac/H4K5) (protein ZNF207 (O43670), replicate B6): 0.2028
A6 log2 (H4K5ac8ac/H4K5) (protein ZNF217 (O75362), replicate A6): -0.8752
B6 log2 (H4K5ac8ac/H4K5) (protein ZNF217 (O75362), replicate B6): 0.08255
A6 log2 (H4K5ac8ac/H4K5) (pulled-down protein ABCE1 (D6R9I9), run A6): 0.4743
B6 log2 (H4K5ac8ac/H4K5) (pulled-down protein ABCE1 (D6R9I9), run B6): 0.5676
A6 log2 (H4K5ac8ac/H4K5) (pulled-down protein ACLY (P53396), run A6): 0.6948
B6 log2 (H4K5ac8ac/H4K5) (pulled-down protein ACLY (P53396), run B6): 1.132
A6 log2 (H4K5ac8ac/H4K5) (pulled-down protein AIP (O00170), run A6): 0.4076
B6 log2 (H4K5ac8ac/H4K5) (pulled-down protein AIP (O00170), run B6): 0.6403
A6 log2 (H4K5ac8ac/H4K5) (pulled-down protein AMOT (Q4VCS5), run A6): 0.2551
B6 log2 (H4K5ac8ac/H4K5) (pulled-down protein AMOT (Q4VCS5), run B6): 1.0062
A6 log2 (H4K5ac8ac/H4K5) (pulled-down protein ANXA2 (P07355), run A6): 1.076
B6 log2 (H4K5ac8ac/H4K5) (pulled-down protein ANXA2 (P07355), run B6): 1.091
A6 log2 (H4K5ac8ac/H4K5) (pulled-down protein BRAP (J3KNN7), run A6): 0.1925
B6 log2 (H4K5ac8ac/H4K5) (pulled-down protein BRAP (J3KNN7), run B6): 0.847
A6 log2 (H4K5ac8ac/H4K5) (pulled-down protein BRD9 (Q9H8M2), run A6): 1.116
B6 log2 (H4K5ac8ac/H4K5) (pulled-down protein BRD9 (Q9H8M2), run B6): 1.731
A6 log2 (H4K5ac8ac/H4K5) (pulled-down protein CALD1 (C9J813), run A6): 1.3
B6 log2 (H4K5ac8ac/H4K5) (pulled-down protein CALD1 (C9J813), run B6): 1.108
A6 log2 (H4K5ac8ac/H4K5) (pulled-down protein CCDC50 (Q8IVM0), run A6): 0.7222
B6 log2 (H4K5ac8ac/H4K5) (pulled-down protein CCDC50 (Q8IVM0), run B6): 0.6029
A6 log2 (H4K5ac8ac/H4K5) (pulled-down protein CDK1 (A0A024QZP7), run A6): -0.67
B6 log2 (H4K5ac8ac/H4K5) (pulled-down protein CDK1 (A0A024QZP7), run B6): 1.075
A6 log2 (H4K5ac8ac/H4K5) (pulled-down protein CDK5 (Q00535), run A6): 0.3478
B6 log2 (H4K5ac8ac/H4K5) (pulled-down protein CDK5 (Q00535), run B6): 0.6099
A6 log2 (H4K5ac8ac/H4K5) (pulled-down protein CGGBP1 (C9JUJ0), run A6): 0.567
B6 log2 (H4K5ac8ac/H4K5) (pulled-down protein CGGBP1 (C9JUJ0), run B6): 1.126
A6 log2 (H4K5ac8ac/H4K5) (pulled-down protein CISD2 (Q8N5K1), run A6): 0.8566
B6 log2 (H4K5ac8ac/H4K5) (pulled-down protein CISD2 (Q8N5K1), run B6): 0.8209
A6 log2 (H4K5ac8ac/H4K5) (pulled-down protein CNBP (P62633), run A6): 1.001
B6 log2 (H4K5ac8ac/H4K5) (pulled-down protein CNBP (P62633), run B6): 0.8789
A6 log2 (H4K5ac8ac/H4K5) (pulled-down protein CRKL (P46109), run A6): 0.6055
B6 log2 (H4K5ac8ac/H4K5) (pulled-down protein CRKL (P46109), run B6): 0.719
A6 log2 (H4K5ac8ac/H4K5) (pulled-down protein CTH (P32929), run A6): 0.5705
B6 log2 (H4K5ac8ac/H4K5) (pulled-down protein CTH (P32929), run B6): 1.0487
A6 log2 (H4K5ac8ac/H4K5) (pulled-down protein CYFIP1 (Q7L576), run A6): 0.517
B6 log2 (H4K5ac8ac/H4K5) (pulled-down protein CYFIP1 (Q7L576), run B6): 0.6679
A6 log2 (H4K5ac8ac/H4K5) (pulled-down protein DDX19A (I3L0H8), run A6): 0.6876
B6 log2 (H4K5ac8ac/H4K5) (pulled-down protein DDX19A (I3L0H8), run B6): 0.6131
A6 log2 (H4K5ac8ac/H4K5) (pulled-down protein DNAJC2 (Q99543), run A6): 0.5011
B6 log2 (H4K5ac8ac/H4K5) (pulled-down protein DNAJC2 (Q99543), run B6): 0.7739
A6 log2 (H4K5ac8ac/H4K5) (pulled-down protein DNAJC7 (Q99615), run A6): 0.7558
B6 log2 (H4K5ac8ac/H4K5) (pulled-down protein DNAJC7 (Q99615), run B6): 0.7392
A6 log2 (H4K5ac8ac/H4K5) (pulled-down protein ERCC6L (B5MDQ0), run A6): 0.455
B6 log2 (H4K5ac8ac/H4K5) (pulled-down protein ERCC6L (B5MDQ0), run B6): 0.6602
A6 log2 (H4K5ac8ac/H4K5) (pulled-down protein EZR (E7EQR4), run A6): 0.5244

Source: publication PMC11005723, “Development of Complementary Photo‐arginine/lysine to Promote Discovery of Arg/Lys hPTMs Interactomes” (Advanced Science, 2024)
